Reference: doi:10.1101/2021.10.12.464104
Results are given in words; binding and its absence hold for the method and conditions named. In cells and extracts the contact can be indirect. Some binding calls cover weakened binding; strength is not graded here.

Sequences of proteins named here, by UniProt entry; tags and fusion partners are left off. Residues count along the entry.
UniProt O00168, residues 21-92: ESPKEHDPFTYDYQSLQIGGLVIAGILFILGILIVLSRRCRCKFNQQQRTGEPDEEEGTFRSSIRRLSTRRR

Molecular target: mCyRFP1-α2 (human Na+/K+-ATPase α2 subunit fused to mCyRFP1) (human) (UniProt P50993)
Test: FRET or BRET

| Substance | binding |
| --- | --- |
| PLM-mMaroon1 (human phospholemman with mMaroon1 at its C-terminus) (from UniProt O00168 21-92) | binds |
| mCyRFP1-α2 (human Na+/K+-ATPase α2 subunit fused to mCyRFP1) (from UniProt P50993 1-1020) | binds |
| mCyRFP1-α3 (human Na+/K+-ATPase α3 subunit fused to mCyRFP1) (from UniProt P13637 1-1013) | binds |
